Laboratory results from PubChem BioAssay AID1439 (NMMLSC, 2008).
The campaign covered roughly 220,000 compounds. About 770 (0.35%) were called active. Inconclusive results, whose numbers are uncertain, are shown with a selection of clear calls. No stated cut-off is given here; in the data, active means binding response below about 49% or above about 150%; inconclusive means no clear call, values can overlap the other calls; inactive means in between.

By UniProt entry, the sequences of proteins in these tests, tags left out.
UniProt P09471, whole entry, looked up: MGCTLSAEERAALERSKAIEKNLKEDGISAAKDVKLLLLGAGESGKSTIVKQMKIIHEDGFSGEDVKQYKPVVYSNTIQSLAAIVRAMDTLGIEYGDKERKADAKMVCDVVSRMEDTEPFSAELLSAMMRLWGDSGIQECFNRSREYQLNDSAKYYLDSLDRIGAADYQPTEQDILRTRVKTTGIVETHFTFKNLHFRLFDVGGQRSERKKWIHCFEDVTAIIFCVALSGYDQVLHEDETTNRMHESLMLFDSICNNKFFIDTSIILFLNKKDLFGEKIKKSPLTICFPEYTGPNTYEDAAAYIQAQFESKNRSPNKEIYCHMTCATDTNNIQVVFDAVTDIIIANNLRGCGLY

Target: Guanine nucleotide-binding protein G(o) subunit alpha (Homo sapiens) (UniProt P09471)
Test: RGS7-Galphao binding modulators, primary screen, biochemical, multiplexed bead flow cytometry (AID 1439);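 further: fluorescent Galphao held in activated GDP-AlF4 state binding bead-coupled RGS7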
Settings: at 10 µM, actives lie on both sides

| SMILES | binding response (% of control) |
| --- | --- |
| COc1ccc(C2CC2/C(C)=N/OC(=O)c2ccc(F)cc2)cc1 (configuration not stated) | inconclusive: 91.3% |
| Cc1ccc(C2Nc3ccccc3C(=O)N2CCN2CCNC2=O)cc1 (configuration not stated) | inconclusive: 92.7% |
| CCc1c(C)sc(NC(=O)c2cccs2)c1C(=O)OC(C)C | inactive: 99.5% |
| COc1ccc(Cc2nnc(N/N=C/c3ccc(N(C)C)cc3)[nH]c2=O)cc1OC | inconclusive: 50% |
| CC1=NN(S(=O)(=O)c2ccc(Cl)cc2Cl)C(=O)c2ccccc2O1 | inconclusive: 112% |
| COC(=O)c1cccnc1-n1c(=O)c2cccnc2n(Cc2cccc(C(F)(F)F)c2)c1=O | inactive: 96.9% |
| O=C(Nc1nnc(SCc2ccc(F)cc2)s1)c1cnccn1 | inconclusive: 90.8% |
| Cc1ccc(Nc2nc(C)nc3c2oc2ccccc23)cc1 | inconclusive: 113% |
| O=C(Oc1ccccc1)c1ccc2c(c1)C(=O)N(Cc1ccncc1)C2=O | inconclusive: 104% |
| O=C(NCc1ccc(F)cc1)C1CCC(CNc2c(N3CCOCC3)c(=O)c2=O)CC1 (configuration not stated) | inconclusive: -657% |
| NC(=O)COC(=O)c1cc(=O)[nH]c2ccccc12 | inconclusive: 365% |
| CNC(=S)N/N=C/c1ccc(N(C)C)cc1 | inconclusive: 89.1% |
| Cc1ccccc1C(=O)NNC(=O)Nc1ccccc1 | inconclusive: 101% |
| COc1cc(-c2nnc(SCC(=O)N(C)C3CCS(=O)(=O)C3)o2)cc(OC)c1OC (configuration not stated) | inactive: 99.1% |
| Cc1cccn2cc(-c3c[nH]c4ccccc34)nc12 | inconclusive: 117% |
| CCCCCC(=O)OC(CN1CCCCCC1)CN1CCCC1=O (configuration not stated) | inconclusive: -27.3% |
| COc1cccc(CNC(=O)CSc2ccc(-c3cccs3)nn2)c1 | inactive: 103% |
| OC12CCCCC1C(c1ccc3c(c1)OCO3)N(Cc1ccc(F)cc1)CC2 (configuration not stated) | inactive: 94.8% |
| COC(=O)c1nnn(-c2ccc(F)c(Cl)c2)c1C(=O)OC | inconclusive: 100% |

| SMILES | binding response (% of control) |
| --- | --- |
| COc1cc(C2C3=C(CCCC3=O)Nc3ccc4ncccc4c32)ccc1O (configuration not stated) | inconclusive: 107% |
| O=C(Cc1c(F)cccc1Cl)Nc1cc(S(=O)(=O)N2CCCCC2)ccc1N1CCOCC1 | inconclusive: 140% |
| COc1cc(C(=O)Nc2nnc(C3CC3)s2)ccc1OCc1c(C)noc1C | inactive: 98.4% |
| Brc1cccc(CNc2nc3ccccc3n2CCN2CCCCC2)c1 | inconclusive: 8.6% |
| Cc1noc(C)c1COC(=O)c1cccc(N(C)C)c1 | inactive: 104% |
| CN(C)S(=O)(=O)c1ccc(-c2csc(N/N=C/c3ccco3)n2)cc1 | inconclusive: 86.3% |
| CC(C)=CCC/C(C)=C/C(=O)O | inconclusive: 116% |
| N#C/C(=C(/O)COC(=O)c1ccc(O)cc1)c1nc2ccccc2[nH]1 | inconclusive: -17.5% |
| CCC(C)Oc1cc(-c2ccnc(Nc3cccc(Cl)c3)n2)ccn1 (configuration not stated) | inconclusive: 102% |
| CC[N+](CC)(CC)CCCCOc1ccc2c(c1)C(=O)c1cc(OCCCC[N+](CC)(CC)CC)ccc1-2 | inconclusive: 118% |
| CC(C)CCNC(=O)NC(=O)COC(=O)CCN=C1NS(=O)(=O)c2ccccc21 | inconclusive: 96.8% |
| CC1(C)CC(=O)C(N=Nc2cc(S(=O)(=O)N3CCOCC3)ccc2Cl)=C(O)C1 | inconclusive: 130% |
| Cc1ccc(S(=O)(=O)N(C)c2ccc(OCC(=O)Nc3nnc(C4CC4)s3)cc2)cc1 | inconclusive: 58.2% |
| O=C1CC(c2ccccc2Cl)c2c(sc3c(=O)[nH]c(CCl)nc23)N1 (configuration not stated) | inconclusive: 102% |
| COc1ccc(-c2c3c(=O)n(C)c(=O)n(C)c3cn2-c2ccc(O)cc2)cc1 | inconclusive: 166% |
| COc1ccc(CCNC(=S)Nc2ccccc2)cc1 | inconclusive: 89.9% |
| CCOc1ccc(CN(C)CC(=O)NCc2ccccc2)cc1 | inconclusive: 27% |
| COC(=O)c1cnc(N2CCOCC2)nc1C(F)(F)F | inconclusive: 239% |
| Cc1ccc(S(=O)(=O)N2CCCCC2C(=O)Nc2nncs2)cc1 (configuration not stated) | inconclusive: 47.7% |

As entered above:
binding response (% of control), `COc1ccc(CCNC(=S)Nc2ccccc2)cc1` reads inconclusive: 89.9%
binding response (% of control), `Cc1noc(C)c1COC(=O)c1cccc(N(C)C)c1` reads inactive: 104%

Further records.

| SMILES | binding response (% of control) |
| --- | --- |
| Cc1onc(-c2c(F)cccc2Cl)c1C(=O)c1ccccc1 | inconclusive: 107% |
| COc1cc(CNC23CC4CC(CC(C4)C2)C3)ccc1OCc1ccccc1 | inactive: 99% |
| Cc1ccc(C(=O)NC(=S)NCc2ccco2)cc1 | inactive: 100% |
| CC(=O)Nc1sc2c(c1C(c1ccccc1Cl)N1CCN(CCO)CC1)CCCC2 (configuration not stated) | inconclusive: 89.3% |
| CCn1nc(C)cc1-c1nnc(SCC(=O)Nc2ccccc2)n1CCCOC | inconclusive: 94% |
| COc1ccc(NC2c3ccccc3C(=O)N2c2ccccn2)cc1 (configuration not stated) | inconclusive: 98.3% |
| CCCn1c(N2CCN(C(=O)NCc3ccccc3)CC2)nc2ccccc21 | inconclusive: 99.7% |
| Cc1ccc(C(=O)NCCN2C3=NC[C@H](Cc4ccc(O)cc4)N3C[C@H]2Cc2ccc(O)cc2)cc1Br | inconclusive: 86.1% |
| COc1ccc(NC(=S)N(C)CC2COc3ccccc3O2)cc1 (configuration not stated) | inconclusive: 106% |
| CCCC(=O)n1nc(-c2ccccc2)nc1N | active: 23.4% |
| N#Cc1ccc(COC(=O)C2CCC(=O)N2)cc1 (configuration not stated) | inactive: 105% |
| Cc1cc(NC(=O)Nc2cc(Cl)ccc2C)no1 | inconclusive: 99.8% |
| O=c1[nH]c(=S)[nH]c(O)c1N=Nc1ccc(-c2ccccc2)cc1[N+](=O)[O-] | inconclusive: 103% |
| S=C(NCc1ccco1)N/N=C/c1ccncc1 | inconclusive: 65% |
| COc1ccc(-n2c(SCC(=O)Nc3ccccc3OC)nc(O)cc2=O)cc1 | inconclusive: 49% |
| COc1cc(OC)c(S(=O)(=O)Nc2ccccc2N2CCCCC2)cc1NC(C)=O | inconclusive: 111% |
| O=C(NCc1ccccn1)[C@H]1C[C@@H]1[C@H](NP(=O)(c1ccccc1)c1ccccc1)c1ccccc1 | inactive: 97.6% |
| O=[N+]([O-])c1cccc(-c2ccc(C(=S)N3CCN(c4ccccc4)CC3)o2)c1 | inconclusive: 97.8% |
| C=CC(COCc1ccccc1)N(Cc1ccc(OC)cc1)S(=O)(=O)c1ccccc1Br (configuration not stated) | inconclusive: 93.3% |
